We go through 1 substance from publication doi:10.1101/2024.05.06.592341.

Protein sequences, listed by entry. Tags and fused reporters are not part of them.
UniProt P05556: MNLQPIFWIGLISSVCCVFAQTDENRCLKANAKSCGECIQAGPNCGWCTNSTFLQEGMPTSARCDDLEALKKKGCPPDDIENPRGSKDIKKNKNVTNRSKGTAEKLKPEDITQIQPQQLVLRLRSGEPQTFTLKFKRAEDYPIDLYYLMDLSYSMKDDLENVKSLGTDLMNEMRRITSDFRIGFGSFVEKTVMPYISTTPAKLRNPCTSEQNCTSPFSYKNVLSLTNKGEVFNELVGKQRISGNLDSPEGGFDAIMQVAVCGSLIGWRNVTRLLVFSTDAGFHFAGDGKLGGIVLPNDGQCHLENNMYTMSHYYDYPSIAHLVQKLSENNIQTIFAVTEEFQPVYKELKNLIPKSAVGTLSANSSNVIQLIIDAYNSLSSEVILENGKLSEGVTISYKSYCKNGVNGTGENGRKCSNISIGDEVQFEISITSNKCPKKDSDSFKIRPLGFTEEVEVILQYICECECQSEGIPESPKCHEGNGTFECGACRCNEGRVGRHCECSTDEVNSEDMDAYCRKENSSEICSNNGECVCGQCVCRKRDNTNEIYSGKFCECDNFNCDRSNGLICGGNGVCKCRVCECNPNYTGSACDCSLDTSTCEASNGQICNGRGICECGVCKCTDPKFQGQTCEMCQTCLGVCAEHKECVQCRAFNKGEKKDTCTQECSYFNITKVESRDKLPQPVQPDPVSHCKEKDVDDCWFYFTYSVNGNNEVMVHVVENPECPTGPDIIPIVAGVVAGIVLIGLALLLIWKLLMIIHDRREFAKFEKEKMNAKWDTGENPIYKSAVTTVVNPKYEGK

For this experiment, the target named is integrin β1 (human (endogenous in hLECs)) (UniProt P05556). Description: proximity ligation.

Results are given in words; binding and its absence hold for the method and conditions named. In cells and extracts the contact can be indirect. Some results given as binding are weak or reduced against the parent protein; the word gives no strength.

With “tetraspanin CD63 (from UniProt P08962 1-238)”, the binding entry is reported as “binds”.
